± gives the standard deviation. This is a selection; strong and weak results do not stand in their true shares. Many of these values have a large error.
What follows are sequences tested on MILI (PIWIL2) piRISC loaded with piRNA #1 (26 nt) (assay: pre-steady-state target cleavage rate (min^-1); MIWI and MILI are mouse PIWI proteins and EfPiwi is from a freshwater sponge; tags in brackets are library labels; higher = faster piRNA-guided slicing of the target). Details: guide: piRNA #1 5'p-UGAGGUAGUAGGUUGUAUAGUAUCCA; auxiliary factor: 500 nM mouse GTSF1.
How it was run: (§1)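 Cleave-'n-Seq measured uncleaved targets by sequencing after a transcribed, DNA-blocked target RNA library […] was mixed with 1 nM active affinity-purified piRISC holding one synthetic guide, with or without 500 nM GTSF1 partner protein, at 33 °C in HEPES–potassium acetate buffer for 0–8 or 0–960 min. Counts were normalised to depth and to weakly complementary targets, three trials were pooled, and k3 was capped at 0.0001 min^-1. A burst-and-steady-state fit gave the pre-steady-state cleavage rate.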
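Also: 1 nM active piRISC with 0.1 nM target library at 33 °C single turnover.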

| Sequence | pre-steady-state target cleavage rate |
| --- | --- |
| GGAGACCUAUGAUUACAACCUAGAACCUCA | 0.00117 ± 0.0047 |
| GGAGACCUAUGAUAACAACCUACUACCUAA | 0.00212 ± 0.0038 |
| GGAGACCUAUGAUAACAACCUUACUACCUCA | 0.00138 ± 0.0054 |
| GGAGACCUAUGAUAUCAACCUACUACGUCA | 0.000469 ± 0.0073 |
| GGAGACCUAUGAUUACAACCAACUACCACA | 0.00189 ± 0.0046 |
| GGAGACCUAACUAUACAACCUGACUACCUCA | 0.00117 ± 0.012 |
| GGAGACCUAUGAUAUGUUGGUUCAACCUCA | 0.000351 ± 0.012 |
| GGAGACCUAUGAUAUGUUCCUACUACAUCA | 0.000269 ± 0.016 |
| GGAGACCUAUGAUAACAACCUACUCACCUCA | 0.00465 ± 0.0027 |
| GGAGACCUAUGAUAUCAACCUGCUACCUCA | 0.00081 ± 0.0064 |
| GGAGACCUUACUAUACAACCCUACUACCUCA | 0.00102 ± 0.0067 |
| GGAGACCUAUCUAUACAACCACUACCUCA | 0.00188 ± 0.005 |
| GGAGACCUAUGAUAUGUUCCAACUAGCUCA | 0.00033 ± 0.016 |
| GGAGACCUAUGAUAUCACCUACUACCUCA | 0.00625 ± 0.0026 |
| GGAGACCAUACUAUACAGACCUACUACCUCA | 0.00132 ± 0.0077 |
| GGAGACCUAUCUAUACAACCUUGAACCUCA | 0.000231 ± 0.013 |
| GGAGUGGAUACUAUACAACCUACUUCGUCA | 0.000256 ± 0.0099 |
| GGAGACCUAUGAUAACGACCUACUACCUCA | 0.00253 ± 0.0035 |
| GGAGACCUAUGUAUACAACGAUCUACCUCA | 0.000789 ± 0.007 |
| GGAGACCUAUGAUAUCAACCUACCACCUCA | 0.00245 ± 0.0042 |

| Sequence | pre-steady-state target cleavage rate |
| --- | --- |
| GGAGACCUAUGAAUACUAACCUACUACCUCA | 0.000865 ± 0.0091 |
| GGAGUGGAUACUAUACAACUCUACUACCUCA | 0.00145 ± 0.0032 |
| GGAGUGCAUACUAUACAACGUACUACCUCA | 0.0301 ± 0.0044 |
| GGAGACCUAUGAUAUGAACCGUACUACCUCA | 0.000392 ± 0.0064 |
| GGAGACCUAUGAUAACUACCUACUACCUGA | 0.000599 ± 0.0083 |
| GGAGACCUAUGAAUACAACCAUGUACCUCA | 0.000775 ± 0.0071 |
| GGAGACCUAUGUAUACAACCUUCUUCCUCA | 0.00226 ± 0.0033 |
| GGAGACCUAACUAUACAACCUAGAUGGAGA [g9:g21:cont:t1A] | 0.000768 ± 0.018 |
| GGAGAGGAUACUAUACAACCUAGUUCCUCA | 0.000425 ± 0.011 |
| GGAGACCUAACUAUACAACCAACAACCUCA | 0.00126 ± 0.011 |
| GGAGACCUAUGAAAACAACCUUCUACCUCA | 0.00204 ± 0.0033 |
| GGAGACCUAUGAUAACAACCUGACUACCUCA | 0.00191 ± 0.0035 |
| GGAGACCUUACUAUACAUGGAUGAUGGAGA [g14:g22:cont:t1A] | 0.000214 ± 0.021 |
| GGAGACCUAUGAUUUCAACCUACUACCUCA | 0.00244 ± 0.0025 |
| GGAGAGGAUACUAUACAACCUACUAGGAGA [g6:g25:cont:t1A] | 0.00183 ± 0.0047 |
| GGAGACCUAUGAUAUCAACCUAUUACCUCA | 0.000718 ± 0.0048 |
| GGAGACCUAUGAAUACUACCUACUUCCUCA | 0.0037 ± 0.0024 |
| GGAGACCUAUGAAUUCAACCUUCUACCUCA | 0.000605 ± 0.006 |
| GGAGACCUAUGAAUACAUCGUACUACCUCA | 0.00148 ± 0.0036 |
| GGAGACCUAUGAUUACAACCUGACUACCUCA | 0.00163 ± 0.0041 |

These sequences were tested on MIWI (PIWIL1) piRISC loaded with piRNA #1 (30 nt) in the same assay as above. Details: guide: piRNA #1 5'p-UGAGGUAGUAGGUUGUAUAGUAUCCAGAGG; auxiliary factor: 500 nM mouse GTSF1.
How it was run: as §1

| Sequence | pre-steady-state target cleavage rate |
| --- | --- |
| GGAGACCUAUGAUUACAACCUAGAACCUCA | 0.000442 ± 0.0055 |
| GGAGACCUAUGAUAACAACCUACUACCUAA | 0.000292 ± 0.0089 |
| GGAGACCUAUGAUAACAACCUUACUACCUCA | 0.000223 ± 0.011 |
| GGAGACCUAUGAUAUCAACCUACUACGUCA | 0.000341 ± 0.0058 |
| GGAGACCUAUGAUUACAACCAACUACCACA | 0.000214 ± 0.014 |
| GGAGACCUAACUAUACAACCUGACUACCUCA | 0.000143 ± 0.041 |
| GGAGACCUAUGAUAUGUUGGUUCAACCUCA | 0.000454 ± 0.0097 |
| GGAGACCUAUGAUAUGUUCCUACUACAUCA | 0.00044 ± 0.0095 |
| GGAGACCUAUGAUAACAACCUACUCACCUCA | 0.00145 ± 0.0053 |
| GGAGACCUAUGAUAUCAACCUGCUACCUCA | 0.000222 ± 0.013 |
| GGAGACCUUACUAUACAACCCUACUACCUCA | 0.000108 ± 0.021 |
| GGAGACCUAUCUAUACAACCACUACCUCA | 0.00125 ± 0.0056 |
| GGAGACCUAUGAUAUGUUCCAACUAGCUCA | 0.000303 ± 0.018 |
| GGAGACCUAUGAUAUCACCUACUACCUCA | 0.000621 ± 0.0075 |
| GGAGACCAUACUAUACAGACCUACUACCUCA | 0.00095 ± 0.0087 |
| GGAGACCUAUCUAUACAACCUUGAACCUCA | 0.000157 ± 0.018 |
| GGAGUGGAUACUAUACAACCUACUUCGUCA | 0.00135 ± 0.0034 |
| GGAGACCUAUGAUAACGACCUACUACCUCA | 0.000198 ± 0.0087 |
| GGAGACCUAUGUAUACAACGAUCUACCUCA | 0.000147 ± 0.014 |
| GGAGACCUAUGAUAUCAACCUACCACCUCA | 0.000906 ± 0.006 |

| Sequence | pre-steady-state target cleavage rate |
| --- | --- |
| GGAGACCUAUGAAUACUAACCUACUACCUCA | 0.000158 ± 0.027 |
| GGAGUGGAUACUAUACAACUCUACUACCUCA | 0.000221 ± 0.031 |
| GGAGUGCAUACUAUACAACGUACUACCUCA | 0.714 ± 0.039 |
| GGAGACCUAUGAUAUGAACCGUACUACCUCA | 0.000111 ± 0.027 |
| GGAGACCUAUGAUAACUACCUACUACCUGA | 0.000122 ± 0.016 |
| GGAGACCUAUGAAUACAACCAUGUACCUCA | 0.000876 ± 0.0046 |
| GGAGACCUAUGUAUACAACCUUCUUCCUCA | 0.00196 ± 0.0022 |
| GGAGACCUAACUAUACAACCUAGAUGGAGA [g9:g21:cont:t1A] | 0.000138 ± 0.043 |
| GGAGAGGAUACUAUACAACCUAGUUCCUCA | 0.000949 ± 0.0053 |
| GGAGACCUAACUAUACAACCAACAACCUCA | 0.000233 ± 0.028 |
| GGAGACCUAUGAAAACAACCUUCUACCUCA | 0.0012 ± 0.0043 |
| GGAGACCUAUGAUAACAACCUGACUACCUCA | 0.000243 ± 0.011 |
| GGAGACCUUACUAUACAUGGAUGAUGGAGA [g14:g22:cont:t1A] | 0.000269 ± 0.015 |
| GGAGACCUAUGAUUUCAACCUACUACCUCA | 0.000373 ± 0.0042 |
| GGAGAGGAUACUAUACAACCUACUAGGAGA [g6:g25:cont:t1A] | 0.00274 ± 0.0045 |
| GGAGACCUAUGAUAUCAACCUAUUACCUCA | 0.000131 ± 0.015 |
| GGAGACCUAUGAAUACUACCUACUUCCUCA | 0.000183 ± 0.01 |
| GGAGACCUAUGAAUUCAACCUUCUACCUCA | 0.000298 ± 0.0079 |
| GGAGACCUAUGAAUACAUCGUACUACCUCA | 0.000269 ± 0.012 |
| GGAGACCUAUGAUUACAACCUGACUACCUCA | 0.000639 ± 0.0081 |

From the supplement of paper PMC10338343
